Source: paper PMC3402474 (PLoS ONE, 2012)
No constants are given. Whether binding was seen depends on the method and setting. Some results given as binding are weak or reduced against the parent protein; the word gives no strength.

Chains of the proteins cited; added tags and fusions are not shown. Residues count along the entry.
UniProt P29311: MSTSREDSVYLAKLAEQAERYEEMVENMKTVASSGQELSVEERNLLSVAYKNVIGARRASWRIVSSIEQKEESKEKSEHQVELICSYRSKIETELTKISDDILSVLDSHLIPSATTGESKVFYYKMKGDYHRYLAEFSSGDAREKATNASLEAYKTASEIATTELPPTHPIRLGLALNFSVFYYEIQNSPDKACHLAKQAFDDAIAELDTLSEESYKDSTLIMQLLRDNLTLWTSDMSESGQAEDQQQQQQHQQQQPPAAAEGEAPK
UniProt P34730: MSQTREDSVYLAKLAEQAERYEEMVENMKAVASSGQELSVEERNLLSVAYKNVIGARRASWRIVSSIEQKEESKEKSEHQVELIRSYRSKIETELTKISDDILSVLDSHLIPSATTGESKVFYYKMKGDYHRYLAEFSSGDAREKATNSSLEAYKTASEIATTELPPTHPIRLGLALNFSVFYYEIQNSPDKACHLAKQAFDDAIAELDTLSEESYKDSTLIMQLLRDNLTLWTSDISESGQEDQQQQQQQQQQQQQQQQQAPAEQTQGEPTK
UniProt P00630, residues 34-167: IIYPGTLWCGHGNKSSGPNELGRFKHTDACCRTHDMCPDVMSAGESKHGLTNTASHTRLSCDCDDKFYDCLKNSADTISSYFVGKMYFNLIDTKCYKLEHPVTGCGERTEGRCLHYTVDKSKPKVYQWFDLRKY

Assays:
[1] = biological target: Bmh1 (S. cerevisiae) (UniProt P29311); assay: SPR; both purified
[2] = biological target: Bmh2 (S. cerevisiae) (UniProt P34730); assay: SPR; both purified
[3] = biological target: Bmh1 (S. cerevisiae) (UniProt P29311); assay: SPR; BiacoreX, 25°C; recombinant Bmh1 or Bmh2 in 50 mM Tris (pH 7.5), 150 mM NaCl, 0.1 mM CaCl2 immobilized to CM5 chips; 2 µM sPLA2 injected; dissociation monitored 180 s; responses corrected for surface density and molecular weights; both purified
[4] = biological target: Bmh2 (S. cerevisiae) (UniProt P34730); assay: as above

bee venom sPLA2 (from UniProt P00630 34-167) (enzyme)
binding [1]: binds
binding [2]: binds

B1: ammodytin I2 (enzyme, UniProt P34180 17-137)
chain: NLYQFGNMIFKMTKKSALLSYSNYGCYCGWGGKGKPQDATDRCCFVHDCCYGRVNGCDPKLSIYSYSFENGDIVCGGDDPCLRAVCECDRVAAICFGENLNTYDKKYKNYPSSHCTETEQC
binding [3]: no binding (tested: 2 µM)
binding [4]: no binding (tested: 2 µM)
